From the supplement of paper PMC8007513
The list shows a part of the results. Most values come without repeats; read them as rough.

test system: Saccharomyces cerevisiae BY4743; test: growth (OD600) relative to untreated control; higher = less growth inhibition; conditions: compound concentration: 133 uM; 20 h
Protocol: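 NMCCC compounds (133 uM, no IPBC) tested alone against Saccharomyces cerevisiae BY4743 in YPD, 96-well plates, starting OD600 ~0.1. Growth was read as OD600 at 20 h and expressed as % of the untreated control. Single pass.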

Compound | growth [%]
Cc1cc(C)cc(-c2nnc(SCc3cc(C)on3)o2)c1 | 69
Cc1ccc(-n2cnnn2)cc1NCC(=O)NC1CCCCCC1 | 90
COc1ccc(CCNc2cc(-c3ccccc3)ncn2)cc1OC | 96
CCOC(=O)C(NC(=O)Cc1ccccc1)(Nc1ccc(S(N)(=O)=O)cc1)C(F)(F)F (centres undefined) | 94.8
Cc1sc(NC(=O)C2CC2)c(C(=O)OC(C)C(=O)N2CCCC2)c1C (centres undefined) | 101
COc1ccc(C(=O)Nc2ccc(OC)c(Cl)c2)c(OC)n1 | 102
COc1cccc(N2CC(C(=O)NCc3ccccc3S(=O)(=O)N(C)C)CC2=O)c1 (centres undefined) | 106
CCN(CC)c1ccc(C(=O)Nc2nc(C)c(SCC#N)s2)cn1 | 74.3
COc1cc(C(=O)OCC(=O)N(C)CC2COc3ccccc3O2)ccc1OC(C)C (centres undefined) | 101
CCOC(=O)Cc1csc(SCc2cc(C)no2)n1 | 81.8
CN(C)CCSc1nnc2sc3ccccc3n12 | 103
CCOC(=O)c1[nH]c(C)c(C(=O)Nc2cccc(Cl)c2C)c1C | 96.7
COC1=CC=C(OC)C(=C1)NC(=O)CN2\C=C/N(CC3=CC=C(C)C=C3)C(=O)C2=O | 101
Cc1ccc(Cl)cc1N1CCN(CCNS(=O)(=O)c2csc(C(N)=O)c2)CC1 | 107
CCC1Sc2ccc(S(=O)(=O)CCC(=O)Nc3ccc(C(C)=O)cc3)cc2NC1=O (centres undefined) | 108
O=C(CNc1nccs1)c1c[nH]c2ccccc12 | 100
Cc1nc(O)c(C#N)c(C)c1CCC(=O)N(C)Cc1ccc(OC(F)F)cc1 | 105
CC1(CC[S](=O)(=O)C1)NC(=O)C/2=N/N(CC3=CC=CC=C3)C(=O)/C=C2 (centres undefined) | 95.1
Cc1ccc(S(=O)(=O)CCC(=O)OC(C)C(=O)N(C)c2ccccc2)cc1 (centres undefined) | 106
Cc1sc2nc(CSC(C)C(=O)OCC(=O)N(C)C)nc(O)c2c1C (centres undefined) | 96.2

Compound | growth [%]
CCOc1ccc(N2C(=O)CCS2(=O)=O)cc1S(=O)(=O)N(Cc1ccccc1)C(C)C | 83.4
COc1ccccc1NC(=O)CN(C)S(=O)(=O)c1ccc2c(c1)n(C)c(=O)c(=O)n2C | 108
CCOC(=O)c1c(C)[nH]c(C)c1S(=O)(=O)N1CCN(Cc2ccccc2)CC1 | 108
CCOc1ccccc1NC(=O)NCc1c(C)nn(CC)c1C | 71.6
CC(C)CNC(=O)c1cc(-c2ccc(Cl)c(Cl)c2)on1 | 97.7
COC(=O)c1sc(-n2cccc2)c(C(=O)OC)c1C | 101
COc1ccc(OC)c(C2CCCN2C(=O)COc2ccc(NC(C)=O)cc2)c1 (centres undefined) | 107
CCCOc1ccc(C(F)(F)F)cc1NS(=O)(=O)c1ccc(CNC(C)=O)s1 | 95.5
CCSc1nnc2c(n1)OC(CC)N(C(C)=O)c1ccccc1-2 (centres undefined) | 92.1
Cc1ccc(C(=O)c2sc(Nc3ccccc3)nc2N)c(C)c1 | 108
O=C(C1CCS(=O)(=O)C1)N1CCc2ccccc21 (centres undefined) | 93.6
Cc1cc(COC(=O)c2ccccc2NC(=O)c2ccsc2)no1 | 80
CCCc1n[nH]c(SCC(=O)NC(C)c2ccc3c(c2)OCCO3)n1 (centres undefined) | 110
CCN(CC)CCNC(=O)c1nn(C)c2c1CSc1ccccc1-2 | 103
CC1CCCCC1NC(=O)c1cc(S(=O)(=O)N2CCCC2)cn1C (centres undefined) | 84.3
CCc1nnc(NC(=O)C(=O)c2cc(C)n(-c3ccc(F)cc3)c2C)s1 | 97
CSc1nc(C)c(CCC(=O)OCc2cn3cc(Cl)ccc3n2)c(C)n1 | 106
CCOC(=O)N1CCN(CC1)C(=O)C2C\C(=N/O2)C3=CC=CC(=C3OC)OC (centres undefined) | 107
CCSc1ccccc1C(=O)Nc1ccc(S(=O)(=O)NCC(F)(F)F)cc1 | 95.4

Arranged by number of heavy atoms (descending): part of the list above.
Compound | growth [%]
COc1ccc(OC)c(C2CCCN2C(=O)COc2ccc(NC(C)=O)cc2)c1 (centres undefined) | 107
CCSc1ccccc1C(=O)Nc1ccc(S(=O)(=O)NCC(F)(F)F)cc1 | 95.4
Cc1cc(COC(=O)c2ccccc2NC(=O)c2ccsc2)no1 | 80
